# Results deposited as PubChem BioAssay AID602196 (INSERM, 2012)
# Screen: 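Genes whose knock-down alters cisplatin killing of lung cancer cells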
# System: human A549 lung cancer cells
# Reagents: siRNA pair against human genes
# Time to read-out: 48 h transfection before cisplatin; time from cisplatin to read-out not stated
# Challenge: cisplatin at a dose killing half of control-siRNA cells; exact dose and duration not given
# Measurement: 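Cisplatin cell death as a shift from the 50% death seen with control siRNA; siRNAs toxic or growth-blocking alone scored 0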
# Scale: two-siRNA summed score (-2 to +2): higher = both siRNAs protect from cisplatin killing; -2 means both sensitise; mean protection from cisplatin (shift in death): higher = protection from cisplatin killing
# Call rule: 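siRNAs harmful alone (LDH or WST-1) get 0; others get +1 for less and -1 for more cisplatin killing; genes are active when the two siRNAs give the same sign, summing to ±2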
# Calls: active = both siRNAs shift cisplatin killing the same way; inactive = no consistent shift, or siRNA harmful alone
# The whole screen tested about 23,000 reagents; below is a part drawn at random. Over the whole deposit, 455 (2%) were called active. 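Active includes both protection and sensitisation; some change values fall well beyond the stated -50 to +50 range.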 A number with no mark means an inactive call. Further read-outs or replicates are left out here. Not stated in the record: the amount of reagent.
target,two-siRNA summed score (-2 to +2),mean protection from cisplatin (shift in death) (%)
NUDT1 (nudix hydrolase 1),-1,-6.6
"RAB7B (RAB7B, member RAS oncogene family)",0,11.7
LOC390244,0,1.3
ZNF445 (zinc finger protein 445),1,10.9
LOC339025,1,9.7
ADAM2 (ADAM metallopeptidase domain 2),0,-13.6
FGFR2 (fibroblast growth factor receptor 2),0,-3
SIRPA (signal regulatory protein alpha),0,6.9
PCDHB6 (protocadherin beta 6),1,8.1
VPS54 (VPS54 subunit of GARP complex),0,11.9
OIP5 (Opa interacting protein 5),0,12
ATP5MG (ATP synthase membrane subunit g),1,12.9
WDR87 (WD repeat domain 87),0,12.1
RPS6KL1 (ribosomal protein S6 kinase like 1),0,-0.2
LINC02774 (long independently transcribed non-coding RNA 2774),0,5.9
CDR2L (cerebellar degeneration related protein 2 like),0,-6.7
RPS2P56 (RPS2 pseudogene 56),0,7
SPARC (secreted protein acidic and cysteine rich),0,8.7
BTG1 (BTG anti-proliferation factor 1),0,-9.8
C10orf62 (chromosome 10 open reading frame 62),0,18.4
LOC440570,0,14.5
LOC441872,0,7.9
ICE1 (interactor of little elongation complex ELL subunit 1),0,5.1

A run of entries from the list above, for reference:
target,two-siRNA summed score (-2 to +2),mean protection from cisplatin (shift in death) (%)
LOC440570,0,14.5
LOC441872,0,7.9
